Measured values: the supplement of paper PMC10849652
The list shows a part of the results.

The chains behind the UniProt entries cited, without tags or fusion partners. Where a name states a change or a piece, a line headed by the entry shows the natural chain unless it says otherwise.
UniProt Q16881, whole entry, looked up: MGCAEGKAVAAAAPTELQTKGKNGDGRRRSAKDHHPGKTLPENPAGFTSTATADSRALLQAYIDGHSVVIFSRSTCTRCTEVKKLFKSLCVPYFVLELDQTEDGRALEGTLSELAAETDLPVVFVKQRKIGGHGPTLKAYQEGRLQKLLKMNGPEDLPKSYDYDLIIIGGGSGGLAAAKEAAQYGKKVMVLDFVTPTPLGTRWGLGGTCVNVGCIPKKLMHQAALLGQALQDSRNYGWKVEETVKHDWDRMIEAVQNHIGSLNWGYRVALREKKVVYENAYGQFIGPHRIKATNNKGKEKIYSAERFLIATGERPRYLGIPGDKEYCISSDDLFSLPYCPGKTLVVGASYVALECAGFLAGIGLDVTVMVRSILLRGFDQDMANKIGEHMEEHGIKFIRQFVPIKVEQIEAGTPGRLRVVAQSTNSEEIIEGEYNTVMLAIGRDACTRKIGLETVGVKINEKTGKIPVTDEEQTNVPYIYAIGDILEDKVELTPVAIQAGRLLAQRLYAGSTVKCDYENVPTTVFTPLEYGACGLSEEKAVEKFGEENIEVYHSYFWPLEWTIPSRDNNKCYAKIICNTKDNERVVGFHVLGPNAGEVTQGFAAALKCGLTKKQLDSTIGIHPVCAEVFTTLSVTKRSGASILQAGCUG
UniProt P22314: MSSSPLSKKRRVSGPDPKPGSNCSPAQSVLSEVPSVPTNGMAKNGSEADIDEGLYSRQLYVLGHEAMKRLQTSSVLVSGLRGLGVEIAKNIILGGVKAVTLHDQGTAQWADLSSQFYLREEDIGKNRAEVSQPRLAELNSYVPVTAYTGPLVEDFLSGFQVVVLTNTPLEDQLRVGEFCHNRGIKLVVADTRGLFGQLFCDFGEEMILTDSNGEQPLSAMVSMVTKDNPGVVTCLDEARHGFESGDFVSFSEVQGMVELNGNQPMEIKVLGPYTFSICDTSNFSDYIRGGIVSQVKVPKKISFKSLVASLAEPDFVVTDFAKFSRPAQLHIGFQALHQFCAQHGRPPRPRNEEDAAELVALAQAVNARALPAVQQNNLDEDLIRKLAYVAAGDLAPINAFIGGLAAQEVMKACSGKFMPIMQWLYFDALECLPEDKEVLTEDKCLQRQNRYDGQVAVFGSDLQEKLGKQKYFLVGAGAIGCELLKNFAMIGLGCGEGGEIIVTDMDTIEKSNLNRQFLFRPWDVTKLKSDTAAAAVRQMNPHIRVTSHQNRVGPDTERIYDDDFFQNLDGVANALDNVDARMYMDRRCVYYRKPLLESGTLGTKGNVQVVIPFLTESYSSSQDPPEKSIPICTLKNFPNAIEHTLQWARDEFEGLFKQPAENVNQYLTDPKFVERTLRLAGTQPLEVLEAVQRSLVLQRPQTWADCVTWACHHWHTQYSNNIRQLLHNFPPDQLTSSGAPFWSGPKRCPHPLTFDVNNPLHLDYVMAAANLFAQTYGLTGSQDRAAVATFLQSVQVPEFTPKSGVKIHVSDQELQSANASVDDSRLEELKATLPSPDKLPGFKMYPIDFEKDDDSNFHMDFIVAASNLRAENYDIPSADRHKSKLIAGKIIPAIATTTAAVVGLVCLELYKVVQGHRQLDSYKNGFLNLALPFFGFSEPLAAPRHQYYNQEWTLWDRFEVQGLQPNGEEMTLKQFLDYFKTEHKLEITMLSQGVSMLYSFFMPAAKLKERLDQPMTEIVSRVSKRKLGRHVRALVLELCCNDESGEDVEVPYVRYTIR
UniProt Q9NX01: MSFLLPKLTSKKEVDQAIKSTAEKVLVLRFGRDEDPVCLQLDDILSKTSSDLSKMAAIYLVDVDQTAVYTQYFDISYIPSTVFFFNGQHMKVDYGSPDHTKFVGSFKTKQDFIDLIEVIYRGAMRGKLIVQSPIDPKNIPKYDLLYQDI
UniProt Q9C0C9: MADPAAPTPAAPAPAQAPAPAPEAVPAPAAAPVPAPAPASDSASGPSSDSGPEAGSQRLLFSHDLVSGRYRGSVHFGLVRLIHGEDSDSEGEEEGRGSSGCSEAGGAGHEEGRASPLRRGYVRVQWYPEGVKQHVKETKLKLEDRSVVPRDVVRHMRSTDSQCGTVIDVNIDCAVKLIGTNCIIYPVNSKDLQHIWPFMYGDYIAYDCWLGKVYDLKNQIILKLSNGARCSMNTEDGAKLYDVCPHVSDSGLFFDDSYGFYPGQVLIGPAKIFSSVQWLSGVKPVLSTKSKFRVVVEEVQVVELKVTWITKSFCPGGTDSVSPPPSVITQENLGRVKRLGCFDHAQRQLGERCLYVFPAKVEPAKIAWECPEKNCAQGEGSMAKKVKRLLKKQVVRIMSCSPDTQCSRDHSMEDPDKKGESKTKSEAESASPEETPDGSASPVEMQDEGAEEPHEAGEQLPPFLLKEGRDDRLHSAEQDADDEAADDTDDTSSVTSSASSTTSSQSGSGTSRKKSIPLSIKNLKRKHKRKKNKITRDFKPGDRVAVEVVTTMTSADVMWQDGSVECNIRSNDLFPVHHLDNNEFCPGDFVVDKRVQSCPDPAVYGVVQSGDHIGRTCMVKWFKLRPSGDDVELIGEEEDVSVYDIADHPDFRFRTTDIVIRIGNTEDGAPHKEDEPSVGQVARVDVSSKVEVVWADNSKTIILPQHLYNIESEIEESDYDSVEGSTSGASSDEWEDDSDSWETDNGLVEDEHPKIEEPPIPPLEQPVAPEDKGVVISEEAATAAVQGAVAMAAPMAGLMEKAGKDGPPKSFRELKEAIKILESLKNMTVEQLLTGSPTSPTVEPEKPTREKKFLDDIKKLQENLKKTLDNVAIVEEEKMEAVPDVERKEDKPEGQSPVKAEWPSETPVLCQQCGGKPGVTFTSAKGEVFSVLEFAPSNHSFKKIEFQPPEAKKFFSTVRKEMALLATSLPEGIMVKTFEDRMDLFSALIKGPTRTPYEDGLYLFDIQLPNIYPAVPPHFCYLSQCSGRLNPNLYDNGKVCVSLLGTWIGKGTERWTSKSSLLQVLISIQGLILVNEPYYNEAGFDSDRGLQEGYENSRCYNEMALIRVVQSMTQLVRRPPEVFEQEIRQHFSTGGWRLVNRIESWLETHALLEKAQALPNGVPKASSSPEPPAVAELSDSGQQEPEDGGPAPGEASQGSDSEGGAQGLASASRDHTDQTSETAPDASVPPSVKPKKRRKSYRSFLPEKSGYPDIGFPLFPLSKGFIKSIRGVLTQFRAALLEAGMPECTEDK
UniProt Q712K3: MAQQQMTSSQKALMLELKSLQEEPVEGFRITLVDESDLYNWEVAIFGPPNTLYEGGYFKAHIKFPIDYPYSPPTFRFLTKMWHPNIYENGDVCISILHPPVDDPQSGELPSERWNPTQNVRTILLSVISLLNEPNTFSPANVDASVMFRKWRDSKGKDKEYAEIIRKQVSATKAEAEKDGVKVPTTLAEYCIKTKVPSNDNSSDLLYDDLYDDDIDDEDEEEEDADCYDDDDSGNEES
UniProt Q9UBT2: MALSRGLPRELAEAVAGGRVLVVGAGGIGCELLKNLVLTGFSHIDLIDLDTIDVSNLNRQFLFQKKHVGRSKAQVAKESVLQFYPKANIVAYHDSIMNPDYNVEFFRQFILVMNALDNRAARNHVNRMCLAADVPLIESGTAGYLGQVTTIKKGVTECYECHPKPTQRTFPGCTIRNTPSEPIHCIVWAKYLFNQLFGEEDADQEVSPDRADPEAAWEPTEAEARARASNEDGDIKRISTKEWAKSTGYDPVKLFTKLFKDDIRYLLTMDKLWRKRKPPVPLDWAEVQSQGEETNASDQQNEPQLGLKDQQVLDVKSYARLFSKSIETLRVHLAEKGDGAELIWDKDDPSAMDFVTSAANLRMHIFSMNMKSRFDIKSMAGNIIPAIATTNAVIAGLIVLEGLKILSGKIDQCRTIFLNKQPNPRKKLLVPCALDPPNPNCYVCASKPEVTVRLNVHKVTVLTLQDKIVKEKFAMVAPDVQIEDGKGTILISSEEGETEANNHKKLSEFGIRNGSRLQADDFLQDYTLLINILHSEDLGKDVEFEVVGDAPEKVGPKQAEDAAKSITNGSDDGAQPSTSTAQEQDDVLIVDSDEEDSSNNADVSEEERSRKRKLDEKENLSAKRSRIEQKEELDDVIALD
UniProt P0DPH7, whole entry, looked up: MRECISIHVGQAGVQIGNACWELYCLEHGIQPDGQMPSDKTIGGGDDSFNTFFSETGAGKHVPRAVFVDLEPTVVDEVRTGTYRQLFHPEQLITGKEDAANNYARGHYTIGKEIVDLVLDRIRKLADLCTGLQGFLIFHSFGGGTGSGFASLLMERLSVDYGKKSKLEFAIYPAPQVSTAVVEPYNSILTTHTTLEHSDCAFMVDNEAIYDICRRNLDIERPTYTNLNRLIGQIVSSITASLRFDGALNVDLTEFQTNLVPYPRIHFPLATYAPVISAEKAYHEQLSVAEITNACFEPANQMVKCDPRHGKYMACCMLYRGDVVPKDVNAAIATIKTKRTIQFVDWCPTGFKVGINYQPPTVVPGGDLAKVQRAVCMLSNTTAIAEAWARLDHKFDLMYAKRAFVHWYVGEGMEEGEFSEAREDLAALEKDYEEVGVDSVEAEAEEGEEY
UniProt P10599: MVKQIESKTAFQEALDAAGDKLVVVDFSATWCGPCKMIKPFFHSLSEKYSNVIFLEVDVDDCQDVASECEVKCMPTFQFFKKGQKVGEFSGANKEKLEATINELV
UniProt Q8WVY7: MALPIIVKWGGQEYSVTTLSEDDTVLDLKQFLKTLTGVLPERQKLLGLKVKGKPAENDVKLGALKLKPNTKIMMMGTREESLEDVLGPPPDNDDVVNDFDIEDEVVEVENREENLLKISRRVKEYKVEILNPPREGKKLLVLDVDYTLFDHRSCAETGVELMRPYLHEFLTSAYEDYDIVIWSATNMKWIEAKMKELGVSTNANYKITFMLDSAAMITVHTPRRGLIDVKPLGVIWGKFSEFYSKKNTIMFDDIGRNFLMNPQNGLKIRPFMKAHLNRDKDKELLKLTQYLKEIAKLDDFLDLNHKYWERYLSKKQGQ
UniProt Q7Z3V4: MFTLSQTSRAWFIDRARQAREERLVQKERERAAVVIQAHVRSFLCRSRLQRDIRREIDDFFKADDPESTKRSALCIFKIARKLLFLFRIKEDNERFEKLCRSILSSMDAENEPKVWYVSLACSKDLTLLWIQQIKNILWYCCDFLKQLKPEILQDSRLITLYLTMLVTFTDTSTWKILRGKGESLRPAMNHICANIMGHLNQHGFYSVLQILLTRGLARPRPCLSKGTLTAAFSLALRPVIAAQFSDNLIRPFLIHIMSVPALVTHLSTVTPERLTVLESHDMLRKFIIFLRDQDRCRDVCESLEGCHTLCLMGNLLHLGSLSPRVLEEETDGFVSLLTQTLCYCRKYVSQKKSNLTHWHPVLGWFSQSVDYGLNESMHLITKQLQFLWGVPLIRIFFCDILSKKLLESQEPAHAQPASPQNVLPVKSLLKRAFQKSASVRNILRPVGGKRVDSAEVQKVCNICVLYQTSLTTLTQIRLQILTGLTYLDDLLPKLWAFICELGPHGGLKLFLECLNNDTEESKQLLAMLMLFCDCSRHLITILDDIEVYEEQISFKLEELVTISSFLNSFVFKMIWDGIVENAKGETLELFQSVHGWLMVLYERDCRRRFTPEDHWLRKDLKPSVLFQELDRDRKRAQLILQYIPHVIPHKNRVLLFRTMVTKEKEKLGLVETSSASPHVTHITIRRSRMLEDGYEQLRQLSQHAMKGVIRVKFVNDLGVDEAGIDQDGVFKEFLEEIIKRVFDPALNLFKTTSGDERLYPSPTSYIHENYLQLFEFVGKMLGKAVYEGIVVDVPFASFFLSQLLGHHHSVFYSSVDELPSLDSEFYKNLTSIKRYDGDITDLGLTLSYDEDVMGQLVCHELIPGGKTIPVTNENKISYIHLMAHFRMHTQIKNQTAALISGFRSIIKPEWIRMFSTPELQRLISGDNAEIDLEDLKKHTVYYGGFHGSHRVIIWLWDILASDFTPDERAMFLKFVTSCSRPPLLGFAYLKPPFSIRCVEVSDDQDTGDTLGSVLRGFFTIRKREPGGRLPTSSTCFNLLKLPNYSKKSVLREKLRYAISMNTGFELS
UniProt Q9UHD9, whole entry, looked up: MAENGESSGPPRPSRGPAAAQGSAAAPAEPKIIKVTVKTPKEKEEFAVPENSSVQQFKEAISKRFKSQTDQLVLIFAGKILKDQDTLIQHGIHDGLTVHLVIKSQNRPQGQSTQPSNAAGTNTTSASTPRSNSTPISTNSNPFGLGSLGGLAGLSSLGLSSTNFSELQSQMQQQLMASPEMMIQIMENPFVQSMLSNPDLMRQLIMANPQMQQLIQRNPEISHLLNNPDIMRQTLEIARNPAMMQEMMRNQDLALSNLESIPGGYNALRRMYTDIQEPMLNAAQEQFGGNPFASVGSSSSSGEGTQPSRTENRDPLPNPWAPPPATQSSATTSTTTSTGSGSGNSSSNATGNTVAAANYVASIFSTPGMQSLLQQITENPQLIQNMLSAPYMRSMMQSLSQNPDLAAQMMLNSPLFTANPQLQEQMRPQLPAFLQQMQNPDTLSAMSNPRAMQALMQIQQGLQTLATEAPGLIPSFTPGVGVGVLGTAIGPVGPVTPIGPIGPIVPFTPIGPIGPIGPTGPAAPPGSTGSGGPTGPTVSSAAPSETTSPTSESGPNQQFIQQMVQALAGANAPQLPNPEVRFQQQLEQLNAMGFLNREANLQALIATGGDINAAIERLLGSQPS

Assays:
Assay in all cases: log2 fold change, soluble protein after heating vs DMSO (PISA); higher = thermal stabilisation; K562 lysate, 10 uM; active = over 0.2 and 3.5 SD of the protein, either way, in both replicates (recomputed)
lapatinib = compound: CS(=O)(=O)CCNCc1ccc(-c2ccc3ncnc(Nc4ccc(OCc5cccc(F)c5)c(Cl)c4)c3c2)o1 [lapatinib]
Outline: (§1)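 Quantification was by TMTpro 16plex LC-MS/MS with equalised channel sums, applied to the supernatant after 21,000xg for 90 min. Samples were crude K562 extract at 1 mg/mL protein in PBS pH 7.4 with 1 mM MgCl2, treated with 10 μM compound for 30 min, heated for 3 min across 48°C-58°C, pooled and brought to 0.5% NP-40 at 4°C. Values are log-two fold changes in thermal stability relative to solvent controls, from duplicates.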

pictilisib = compound: CS(=O)(=O)N1CCN(Cc2cc3nc(-c4cccc5[nH]ncc45)nc(N4CCOCC4)c3s2)CC1 [pictilisib]
Outline: as §1

crizotinib = compound: C[C@@H](Oc1cc(-c2cnn(C3CCNCC3)c2)cnc1N)c1c(Cl)ccc(F)c1Cl [crizotinib]
Outline: as §1

[1] = compound: C[C@H](C1=CC=C(C=C1)C(=O)NC2=C3C=CNC3=NC=C2)N
Outline: as §1

duvelisib = compound: C[C@H](Nc1ncnc2nc[nH]c12)c1cc2cccc(Cl)c2c(=O)n1-c1ccccc1 [duvelisib]
Outline: as §1

gandotinib = compound: Cc1cc(Nc2cc(CN3CCOCC3)c3nc(C)c(Cc4ccc(Cl)cc4F)n3n2)n[nH]1 [gandotinib]
Outline: as §1

tozasertib = compound: Cc1cc(Nc2cc(N3CCN(C)CC3)nc(Sc3ccc(NC(=O)C4CC4)cc3)n2)n[nH]1 [tozasertib]
Outline: as §1

doramapimod = compound: Cc1ccc(-n2nc(C(C)(C)C)cc2NC(=O)Nc2ccc(OCCN3CCOCC3)c3ccccc23)cc1 [doramapimod]
Outline: as §1

bafetinib = compound: Cc1ccc(NC(=O)c2ccc(CN3CC[C@H](N(C)C)C3)c(C(F)(F)F)c2)cc1Nc1nccc(-c2cncnc2)n1 [bafetinib]
Outline: as §1

[2] = compound: Cc1cccc(CC(=O)N2CCc3c2ccc(-c2cn(C)c4ncnc(N)c24)c3F)n1
Outline: as §1

nilotinib = compound: Cc1cn(-c2cc(NC(=O)c3ccc(C)c(Nc4nccc(-c5cccnc5)n4)c3)cc(C(F)(F)F)c2)cn1 [nilotinib]
Outline: as §1

[3] = compound: Cc1nc(Nc2n[nH]c3c2CN(C(=O)N[C@H](CN(C)C)c2ccccc2)C3(C)C)c2sccc2n1
Outline: as §1

dasatinib = compound: Cc1nc(Nc2ncc(C(=O)Nc3c(C)cccc3Cl)s2)cc(N2CCN(CCO)CC2)n1 [dasatinib]
Outline: as §1

[4] = compound: Cc1ncc(-c2ccnc(Nc3ccc(S(C)(=O)=O)cc3)n2)n1C(C)C
Outline: as §1

[5] = compound: Cn1cc(-c2ccc3c(c2)CCN3C(=O)Cc2cccc(C(F)(F)F)c2)c2c(N)ncnc21
Outline: as §1

quisinostat = compound: Cn1cc(CNCC2CCN(c3ncc(C(=O)NO)cn3)CC2)c2ccccc21 [quisinostat]
Outline: as §1

tipifarnib = compound: Cn1cncc1[C@@](N)(c1ccc(Cl)cc1)c1ccc2c(c1)c(-c1cccc(Cl)c1)cc(=O)n2C [tipifarnib]
Outline: as §1

[6] = compound: NC(=O)Nc1cc(-c2cccc(F)c2)sc1C(=O)N[C@H]1CCCNC1
Outline: as §1

[7] = compound: NC(=O)c1cnc(N[C@@H]2CCCC[C@@H]2N)nc1Nc1cccc(-n2nccn2)c1
Outline: as §1

[8] = compound: NC1(c2ccc(-c3nc4ccn5c(=O)[nH]nc5c4cc3-c3ccccc3)cc2)CCC1
Outline: as §1

Measured: log2 fold change

TXNRD1 (UniProt Q16881)
inactive: lapatinib -0.002 | pictilisib 0.009 | crizotinib -0.009 | [1] -0.084 | duvelisib -0.018 | gandotinib 0.025 | tozasertib 0.008 | doramapimod -0.003 | bafetinib 0.032 | [2] 0.007 | nilotinib 0.002 | [3] -0.01 | dasatinib 0.016 | [4] -0.012 | [5] -0.021 | quisinostat -0.031 | tipifarnib 0.009 | [6] -0.002 | [7] -0.003 | [8] 0.013

UBA1 (UniProt P22314)
inactive: lapatinib -0.005 | pictilisib -0.003 | crizotinib -0.037 | [1] -0.012 | duvelisib 0.011 | gandotinib -0.017 | tozasertib -0.005 | doramapimod 0.009 | bafetinib -0.017 | [2] 0.023 | nilotinib -0.004 | [3] 0.014 | dasatinib -0.026 | [4] 0.002 | [5] 0.028 | quisinostat -0.019 | tipifarnib -0.01 | [6] 0.019 | [7] 0.008 | [8] -0.011

TXNL4B (UniProt Q9NX01)
inactive: lapatinib -0.109 | pictilisib 0.182 | crizotinib 0.039 | [1] -0.156 | duvelisib 0.031 | gandotinib -0.023 | tozasertib 0.248 | doramapimod 0.093 | bafetinib -0.152 | [2] 0.376 | nilotinib -0.047 | [3] -0.094 | dasatinib 0.021 | [4] -0.031 | [5] 0.041 | quisinostat -0.022 | tipifarnib 0.126 | [6] -0.07 | [7] 0.259 | [8] -0.051

UBXN4 (UniProt Q92575)
inactive: lapatinib -0.004 | pictilisib -0.043 | crizotinib -0.017 | [1] -0.176 | duvelisib -0.004 | gandotinib 0.164 | tozasertib 0.015 | doramapimod -0.002 | bafetinib 0.012 | [2] 0.239 | nilotinib 0.005 | [3] 0.024 | dasatinib 0.042 | [4] 0.096 | [5] 0.019 | quisinostat -0.087 | tipifarnib -0.052 | [6] -0.014 | [7] -0.015 | [8] -0.004

TUBA4A (UniProt P68366)
inactive: lapatinib -0.02 | pictilisib 0.012 | crizotinib -0.048 | [1] -0.066 | duvelisib 0.034 | gandotinib 0.121 | tozasertib 0.011 | doramapimod 0.045 | bafetinib -0.028 | [2] 0.035 | nilotinib 0.036 | [3] -0.024 | dasatinib -0.09 | [4] -0.009 | [5] 0.02 | quisinostat -0.024 | tipifarnib -0.012 | [6] 0.034 | [7] 0.022 | [8] -0.003

TWISTNB (UniProt Q3B726)
inactive: lapatinib -0.033 | pictilisib -0.007 | crizotinib 0.061 | [1] 0.069 | duvelisib 0.007 | gandotinib -0.029 | tozasertib -0.037 | doramapimod -0.104 | bafetinib -0.094 | [2] -0.013 | nilotinib 0.057 | [3] -0.017 | dasatinib -0.033 | [4] -0.053 | [5] 0.018 | quisinostat 0.145 | tipifarnib -0.097 | [6] 0.006 | [7] -0.028 | [8] -0.048

Quoted at random: 2 entries already listed
TXNL4B (UniProt Q9NX01)
inactive: lapatinib -0.109 | pictilisib 0.182 | crizotinib 0.039 | [1] -0.156 | duvelisib 0.031 | gandotinib -0.023 | tozasertib 0.248 | doramapimod 0.093 | bafetinib -0.152 | [2] 0.376 | nilotinib -0.047 | [3] -0.094 | dasatinib 0.021 | [4] -0.031 | [5] 0.041 | quisinostat -0.022 | tipifarnib 0.126 | [6] -0.07 | [7] 0.259 | [8] -0.051

TUBA4A (UniProt P68366)
inactive: lapatinib -0.02 | pictilisib 0.012 | crizotinib -0.048 | [1] -0.066 | duvelisib 0.034 | gandotinib 0.121 | tozasertib 0.011 | doramapimod 0.045 | bafetinib -0.028 | [2] 0.035 | nilotinib 0.036 | [3] -0.024 | dasatinib -0.09 | [4] -0.009 | [5] 0.02 | quisinostat -0.024 | tipifarnib -0.012 | [6] 0.034 | [7] 0.022 | [8] -0.003

Following part

UBE2O (UniProt Q9C0C9)
inactive: lapatinib -0.011 | pictilisib -0.009 | crizotinib -0.022 | [1] -0.079 | duvelisib 0.021 | gandotinib 0.127 | tozasertib -0.008 | doramapimod 0.007 | bafetinib -0.005 | [2] 0.122 | nilotinib 0.036 | [3] -0.017 | dasatinib -0.003 | [4] 0.06 | [5] -0.016 | quisinostat -0.051 | tipifarnib -0.03 | [6] 0.012 | [7] -0.007 | [8] -0.028

UBE2R2 (UniProt Q712K3)
inactive: lapatinib 0 | pictilisib -0.03 | crizotinib 0.005 | [1] 0.01 | duvelisib 0.005 | gandotinib 0 | tozasertib 0.026 | doramapimod 0.037 | bafetinib 0.006 | [2] -0.024 | nilotinib -0.011 | [3] 0.01 | dasatinib 0.046 | [4] 0.003 | [5] 0.006 | quisinostat 0.045 | tipifarnib 0 | [6] 0.016 | [7] 0.035 | [8] 0.043

UBA2 (UniProt Q9UBT2)
inactive: lapatinib -0.01 | pictilisib 0.023 | crizotinib 0.058 | [1] 0.004 | duvelisib 0.013 | gandotinib -0.033 | tozasertib -0.011 | doramapimod 0.001 | bafetinib 0.002 | [2] -0.037 | nilotinib 0.003 | [3] -0.026 | dasatinib -0.009 | [4] -0.006 | [5] 0.013 | quisinostat 0.069 | tipifarnib 0.013 | [6] 0.004 | [7] -0.014 | [8] 0.009

TUBA3C (UniProt P0DPH7)
inactive: lapatinib 0.038 | pictilisib -0.003 | crizotinib -0.078 | [1] 0.009 | duvelisib 0.03 | gandotinib 0.072 | tozasertib 0.055 | doramapimod 0.014 | bafetinib 0.012 | [2] 0.023 | nilotinib -0.009 | [3] -0.029 | dasatinib -0.018 | [4] -0.001 | [5] -0.05 | quisinostat -0.098 | tipifarnib -0.025 | [6] 0.05 | [7] 0.022 | [8] 0.005

UBE3A (UniProt Q05086)
inactive: lapatinib -0.013 | pictilisib -0.023 | crizotinib -0.008 | [1] -0.077 | duvelisib 0.016 | gandotinib 0 | tozasertib -0.01 | doramapimod 0.018 | bafetinib -0.034 | [2] 0.027 | nilotinib 0.006 | [3] 0.009 | dasatinib -0.026 | [4] 0.011 | [5] 0.011 | quisinostat -0.023 | tipifarnib -0.001 | [6] 0.006 | [7] -0.007 | [8] -0.017

TUT4 (UniProt Q5TAX3)
inactive: lapatinib -0.003 | pictilisib -0.041 | crizotinib 0 | [1] -0.064 | duvelisib 0.006 | gandotinib -0.001 | tozasertib 0.047 | doramapimod -0.023 | bafetinib -0.039 | [2] 0.15 | nilotinib -0.06 | [3] 0.02 | dasatinib -0.097 | [4] 0.001 | [5] -0.001 | quisinostat -0.054 | tipifarnib -0.045 | [6] 0.055 | [7] 0.048 | [8] -0.002

TXN (UniProt P10599)
inactive: lapatinib 0.024 | pictilisib 0.055 | crizotinib 0.042 | [1] 0.083 | duvelisib 0.024 | gandotinib -0.005 | tozasertib -0.009 | doramapimod -0.043 | bafetinib 0.14 | [2] -0.041 | nilotinib 0.006 | [3] -0.035 | dasatinib 0.05 | [4] 0.006 | [5] 0.005 | quisinostat 0.056 | tipifarnib 0.01 | [6] -0.017 | [7] 0.002 | [8] 0.007

UBLCP1 (UniProt Q8WVY7)
inactive: lapatinib 0.023 | pictilisib -0.041 | crizotinib 0.033 | [1] 0.113 | duvelisib 0.017 | gandotinib -0.083 | tozasertib 0.102 | doramapimod -0.006 | bafetinib -0.028 | [2] -0.057 | nilotinib -0.014 | [3] 0.007 | dasatinib 0.03 | [4] -0.006 | [5] 0.002 | quisinostat 0.064 | tipifarnib -0.006 | [6] -0.011 | [7] 0.033 | [8] 0.045

UBE3B (UniProt Q7Z3V4)
inactive: lapatinib -0.019 | pictilisib 0.025 | crizotinib -0.027 | [1] -0.174 | duvelisib 0.136 | gandotinib -0.17 | tozasertib -0.005 | doramapimod 0.083 | bafetinib -0.082 | [2] 0.203 | nilotinib 0.041 | [3] -0.006 | dasatinib 0.055 | [4] -0.011 | [5] 0.053 | quisinostat -0.077 | tipifarnib -0.102 | [6] 0.041 | [7] 0.14 | [8] -0.026

UBQLN2 (UniProt Q9UHD9)
inactive: lapatinib 0.051 | pictilisib -0.008 | crizotinib 0.029 | [1] 0 | duvelisib 0.009 | gandotinib -0.003 | tozasertib -0.028 | doramapimod -0.053 | bafetinib 0.006 | [2] 0.046 | nilotinib 0.013 | [3] 0.037 | dasatinib 0.02 | [4] 0.073 | [5] 0.017 | quisinostat -0.023 | tipifarnib 0.01 | [6] -0.005 | [7] 0.018 | [8] -0.021
